In PubChem BioAssay AID540275 (National Center for Advancing Translational Sciences (NCATS), 2011):
The whole screen tested about 320,000 compounds, of which about 620 (0.19%) were called active. Inconclusive means that the source gave no clear call. Such entries were picked first, then a sample of the others. No stated cut-off is given here; in the data, active means activation above about 80%; inconclusive means between about 30% and that limit; inactive means weaker than that.

Chains of the proteins cited; added tags and fusions are not shown.
UniProt Q8NER1, whole entry, looked up: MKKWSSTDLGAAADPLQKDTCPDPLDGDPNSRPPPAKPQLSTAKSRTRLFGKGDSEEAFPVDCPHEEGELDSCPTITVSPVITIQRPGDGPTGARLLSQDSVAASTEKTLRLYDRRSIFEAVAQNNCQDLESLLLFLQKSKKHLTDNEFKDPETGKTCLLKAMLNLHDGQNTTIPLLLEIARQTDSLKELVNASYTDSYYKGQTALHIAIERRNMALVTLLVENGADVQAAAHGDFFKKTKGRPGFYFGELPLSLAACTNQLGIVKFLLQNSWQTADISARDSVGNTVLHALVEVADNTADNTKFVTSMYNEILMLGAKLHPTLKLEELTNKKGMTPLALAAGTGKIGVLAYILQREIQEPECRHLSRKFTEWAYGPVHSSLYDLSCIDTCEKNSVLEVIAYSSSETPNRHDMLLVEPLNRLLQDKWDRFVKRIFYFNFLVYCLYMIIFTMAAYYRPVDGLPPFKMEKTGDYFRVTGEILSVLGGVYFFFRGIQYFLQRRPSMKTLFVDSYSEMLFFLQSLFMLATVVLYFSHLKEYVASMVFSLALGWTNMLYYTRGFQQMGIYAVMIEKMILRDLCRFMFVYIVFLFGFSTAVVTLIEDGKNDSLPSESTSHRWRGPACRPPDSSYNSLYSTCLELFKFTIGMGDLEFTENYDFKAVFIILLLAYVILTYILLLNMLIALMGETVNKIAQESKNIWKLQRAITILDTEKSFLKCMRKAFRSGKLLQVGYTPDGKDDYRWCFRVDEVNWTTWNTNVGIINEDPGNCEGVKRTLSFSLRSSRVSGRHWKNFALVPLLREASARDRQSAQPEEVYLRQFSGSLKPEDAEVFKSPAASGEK

Molecular target: Transient receptor potential cation channel subfamily V member 1 (Homo sapiens) (UniProt Q8NER1)
Test: HTS Assay for Compounds that Act as Agonists of the Vanilloid Receptor 1; further: 0% is about no effect
Conditions: TRPV1-expressing cells, Fluo-8 calcium influx, agonist mode; at 8.33 µM; hits give high values
How it was run: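 TRPV1-expressing cells were cultured overnight at 35.5C and loaded with Fluo-8 calcium dye for 40 to 90 min at room temperature. After a 10 s baseline, compound was added and calcium influx was read kinetically for 3 min (ex 480/em 520 nm).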

Compound	activation
COC(=O)C1=C(c2ccc(F)cc2F)C[C@@H]2CC[C@H]1N2C(=O)NCc1ccc2c(c1)OCO2	inconclusive: 34.1%
O=C1NC(=O)N(c2ccccc2F)C(=O)/C1=C/c1ccc(Sc2nc3ccccc3[nH]2)o1	inactive: 13.8%
Nc1c(C(=O)NC2CCCC2)c2nc3ccccc3nc2n1CC1CCCO1 (stereo not given)	inconclusive: 53.1%
CC(C)OCCCNC(=O)c1c(N)n(Cc2cccs2)c2nc3ccccc3nc12	inactive: -1.43%
CC(=O)c1ccc2c(c1)C1C(Cl)C(Sc3ccccc3[N+](=O)[O-])CC1C(c1ccccc1[N+](=O)[O-])N2 (stereo not given)	inactive: -1.01%
C[C@]12CCC(=O)C=C1CC[C@@H]1[C@@H]2CC[C@]2(C)C(=O)CC[C@@H]12	inconclusive: 39.6%
COC(=O)C1=C(c2ccccc2OCc2ccccc2)C[C@@H]2CC[C@H]1N2C(=O)NCc1ccc(OC)c(OC)c1	inconclusive: 45%
O=c1c2ccccc2nc(-c2ccccc2)n1-c1ccccc1O	inconclusive: 71.8%
COC(=O)C(C)Oc1cc(C)cc2oc(=O)c3c(c12)CCCC3 (stereo not given)	inconclusive: 55.7%
COc1ccc(CCNC(=O)c2c(N)n(CCN3CCOCC3)c3nc4ccccc4nc23)cc1	inconclusive: 66.8%
COc1ccc(OC)c(NP(=O)(Oc2ccccc2)Oc2ccccc2)c1	inconclusive: 46.6%
CCC(C)NC(=O)c1c(N)n(CC2CCCO2)c2nc3ccccc3nc12 (stereo not given)	inconclusive: 46%
O=C(c1ccccc1)c1ccc(N=Nc2c(O)[nH]c(=O)[nH]c2=O)cc1	inactive: 5.94%
NN=C(N)N	inactive: -0.221%
Cc1cc(Cl)ccc1C(=O)C1CCCN(C2CCSCC2)C1 (stereo not given)	inactive: 12.4%
COC(=O)C1=C(c2ccc(-c3ccccc3)c(F)c2)C[C@@H]2CC[C@H]1N2C(=O)N1CCC(O)CC1	inconclusive: 30.2%
O=C(COc1ccccc1)N1CCN(C2CC3CCC2C3)CC1 (stereo not given)	inconclusive: 48.4%
COc1ccc(-n2c(=O)[nH]c3ccccc3c2=O)c(OC)c1	inactive: 1.9%
CCOC(=O)C(=O)NC1CCSC1=O (stereo not given)	inactive: 3.6%
CCN(CC)S(=O)(=O)c1ccc(C)c(NCC(=O)Nc2ccc(C#N)c(Cl)c2)c1	inconclusive: 40.5%
CN(C)C(=O)Oc1c(Cl)cc(Cl)c2ccccc12	inconclusive: 34.8%
CCC(=NCCc1ccccc1)c1c(O)n(C2CCCCC2)c(=O)[nH]c1=O	inconclusive: 34.1%
COC(=O)[C@H]1C[C@@H]1[C@H](NP(=O)(c1ccccc1)c1ccccc1)c1ccccc1	inconclusive: 43.1%
CCN(CC)c1ccc(CN2CC=C(c3ccc(F)cc3)CC2)cc1	inactive: 0.333%
c1ccc(OCCSc2nc3ccccc3[nH]2)cc1	inconclusive: 40.3%
CCOC(=O)c1c(N)n(Cc2ccc(OC)cc2)c2nc3ccccc3nc12	inactive: -1.71%
CCOc1c(P(=S)(N(C)C)N(C)C)c(C)nn1-c1ccccc1	inconclusive: 31.1%
C=C[C@@H]1C[C@@]1(C)[C@@H](NP(=O)(c1ccccc1)c1ccccc1)c1ccccc1	inconclusive: 76.8%

Compound	activation
CCOC(=O)C1=C(N)Oc2cc(C)oc(=O)c2C12C(=O)N1c3c(cccc32)C(C)CC1(C)C (stereo not given)	inconclusive: 37.1%
Cn1cc(C=C2C(=O)NC(=O)NC2=O)c2ccccc21	inactive: -3.97%
O=C1NC(=O)N(c2cccc(Cl)c2)C(=O)/C1=C\c1ccc(Sc2nc3ccccc3[nH]2)o1	inactive: 15.1%
O=C(Nc1cccc(OC(=O)N2CCCCC2)c1)N1CCOCC1	inconclusive: 60.3%
CCN(CC(=O)Nc1ccc(C#N)c(Cl)c1)CC(=O)NC1CCS(=O)(=O)C1 (stereo not given)	inactive: -3.81%
COc1cc(C=C2C(=O)NC(=O)NC2=O)ccc1O	inactive: -5.21%
CCCCNC(=S)N1CCn2cccc2C1c1cccnc1 (stereo not given)	inconclusive: 37.8%
O=[N+]([O-])c1ccc(N2CCCCCC2)c2nonc12	inconclusive: 58.7%
CC1(C)CSC(=NCc2ccccc2)N1	inconclusive: 31.2%
Cc1cc(C(=O)Nc2ccccc2)nn1C(C)(C)C	inconclusive: 69.1%
N#CSCC(=O)N1c2ccccc2CCc2ccccc21	inactive: 0.89%
CN1CCN(c2ccc(N)cc2)CC1	inactive: -0.24%
COc1ccccc1OCCCn1cc(C(=O)c2ccco2)c2ccccc21	inconclusive: 30.7%
COC(=O)C1=C(c2ccccc2OCc2ccccc2)C[C@@H]2CC[C@H]1N2C(=O)NCc1ccc(N(C)C)cc1	inconclusive: 31.5%
COC(=O)C1=C(c2ccc(C(C)=O)cc2)C[C@@H]2CC[C@H]1N2C(=O)N1CCC(C)CC1	inconclusive: 31.1%
COC(=O)c1c(N)n(Cc2ccc(OC)cc2)c2nc3ccccc3nc12	inactive: 2.5%
CCN1CCN(S(=O)(=O)c2ccc(Cl)nc2)CC1	inactive: 1.38%
Nc1c2c(nc3sc4c(c13)CCCC4)CCCCC2	inconclusive: 45%
CCC1=Nc2cc(C(=O)N3CCC4(CC3)OCCO4)ccc2Sc2ccc(C)cc21	inconclusive: 36.7%
COC(=O)C1=C(c2cccc(C#N)c2)C[C@@H]2CC[C@H]1N2C(=O)N1CCC(C)CC1	inconclusive: 31.1%
COC(=O)C1CN(C#N)N(c2ccc(Cl)cc2)C12c1ccccc1-c1ccccc12 (stereo not given)	inactive: 4.76%
COC(=O)C1=C(c2ccc(F)cc2OCc2ccccc2)C[C@@H]2CC[C@H]1N2C(=O)NC1CCCCC1	inconclusive: 41.6%
CCCCNC(=O)Nc1ccc(C(O)(C(=O)OCC)C(F)(F)F)cc1 (stereo not given)	inconclusive: 55.4%
COCCCn1c(N)c(C(=O)OCCOC)c2nc3ccccc3nc21	inactive: 0.0858%
Cc1cc2oc(=O)cc(-c3cc4ccccc4o3)c2cc1OC(=O)N(C)C	inconclusive: 76.6%
COc1ccc(CCNC(=O)c2c(N)n(CCN3CCOCC3)c3nc4ccccc4nc23)cc1OC	inconclusive: 49.7%
O=C1C(=O)c2cccc3cccc1c23	inactive: -7.2%

In the list so far, 4 contain an aryl thioether with sulfur outside any ring.
Compound	activation
O=C1NC(=O)N(c2ccccc2F)C(=O)/C1=C/c1ccc(Sc2nc3ccccc3[nH]2)o1	inactive: 13.8%
CC(=O)c1ccc2c(c1)C1C(Cl)C(Sc3ccccc3[N+](=O)[O-])CC1C(c1ccccc1[N+](=O)[O-])N2 (stereo not given)	inactive: -1.01%
c1ccc(OCCSc2nc3ccccc3[nH]2)cc1	inconclusive: 40.3%
O=C1NC(=O)N(c2cccc(Cl)c2)C(=O)/C1=C\c1ccc(Sc2nc3ccccc3[nH]2)o1	inactive: 15.1%
